Changes are numbered by the printed parent chain. In names and notes the source's numbering stands. Results are given in words; binding and its absence hold for the method and conditions named. Some results given as binding are weak or reduced against the parent protein; the word gives no strength.
T1: LptG (E. coli) (UniProt P0ADC6)
T1 sequence: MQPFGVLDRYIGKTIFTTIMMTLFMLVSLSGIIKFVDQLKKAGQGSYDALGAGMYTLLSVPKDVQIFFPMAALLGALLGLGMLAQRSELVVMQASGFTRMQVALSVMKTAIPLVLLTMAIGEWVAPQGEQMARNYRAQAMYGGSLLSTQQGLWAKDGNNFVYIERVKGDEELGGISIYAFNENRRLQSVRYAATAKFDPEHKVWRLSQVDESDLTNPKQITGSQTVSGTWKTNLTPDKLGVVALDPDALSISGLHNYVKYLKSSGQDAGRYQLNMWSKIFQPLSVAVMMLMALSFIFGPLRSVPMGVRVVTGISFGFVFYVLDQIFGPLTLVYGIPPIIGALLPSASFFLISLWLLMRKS

T2: LptF (E. coli) (UniProt P0AF98)
T2 sequence: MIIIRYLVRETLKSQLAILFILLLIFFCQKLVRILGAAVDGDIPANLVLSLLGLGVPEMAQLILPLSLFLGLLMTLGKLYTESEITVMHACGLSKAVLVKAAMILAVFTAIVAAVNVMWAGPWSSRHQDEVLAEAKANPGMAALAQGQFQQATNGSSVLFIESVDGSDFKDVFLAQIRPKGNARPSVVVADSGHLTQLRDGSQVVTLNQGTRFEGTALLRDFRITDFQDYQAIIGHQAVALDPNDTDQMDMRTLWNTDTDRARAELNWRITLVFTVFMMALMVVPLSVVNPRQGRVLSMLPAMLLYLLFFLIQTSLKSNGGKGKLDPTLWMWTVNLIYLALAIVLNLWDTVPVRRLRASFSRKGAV

B1: LptB^WT (enzyme, E. coli, UniProt P0A9V1 1-241, looked up)
chain: MATLTAKNLAKAYKGRRVVEDVSLTVNSGEIVGLLGPNGAGKTTTFYMVVGIVPRDAGNIIIDDDDISLLPLHARARRGIGYLPQEASIFRRLSVYDNLMAVLQIRDDLSAEQREDRANELMEEFHIEHLRDSMGQSLSGGERRRVEIARALAANPKFILLDEPFAGVDPISVIDIKRIIEHLRDSGLGVLITDHNVRETLAVCERAYIVSQGHLIAHGTPTEILQDEHVKRVYLGEDFRL
B2: LptB^R91S (enzyme, UniProt P0A9V1 1-241)
chain: B1 chain with R91S

What was measured:
[1] = target: T1, LptG (E. coli); test: affinity co-purification; LptB2FG-LptC-His7 complex variants purified from E. coli through LptC-His7; Coomassie blue-stained denaturing gel
[2] = target: T2, LptF (E. coli); test: as above

Binder	binding [1]	binding [2]
B1	binds	binds
B2	binds	binds

Reference: PMC5082905, “Identification of Residues in the Lipopolysaccharide ABC Transporter That Coordinate ATPase Activity with Extractor Function” (mBio, 2016)
